Results are given in words; binding and its absence hold for the method and conditions named. Binding seen in cells or lysates may run through a third protein. Some results given as binding are weak or reduced against the parent protein; the word gives no strength.
Molecular target: T1, Plakophilin-1 (human (endogenous in SK-MES-1)) (UniProt Q13835)
T1 sequence: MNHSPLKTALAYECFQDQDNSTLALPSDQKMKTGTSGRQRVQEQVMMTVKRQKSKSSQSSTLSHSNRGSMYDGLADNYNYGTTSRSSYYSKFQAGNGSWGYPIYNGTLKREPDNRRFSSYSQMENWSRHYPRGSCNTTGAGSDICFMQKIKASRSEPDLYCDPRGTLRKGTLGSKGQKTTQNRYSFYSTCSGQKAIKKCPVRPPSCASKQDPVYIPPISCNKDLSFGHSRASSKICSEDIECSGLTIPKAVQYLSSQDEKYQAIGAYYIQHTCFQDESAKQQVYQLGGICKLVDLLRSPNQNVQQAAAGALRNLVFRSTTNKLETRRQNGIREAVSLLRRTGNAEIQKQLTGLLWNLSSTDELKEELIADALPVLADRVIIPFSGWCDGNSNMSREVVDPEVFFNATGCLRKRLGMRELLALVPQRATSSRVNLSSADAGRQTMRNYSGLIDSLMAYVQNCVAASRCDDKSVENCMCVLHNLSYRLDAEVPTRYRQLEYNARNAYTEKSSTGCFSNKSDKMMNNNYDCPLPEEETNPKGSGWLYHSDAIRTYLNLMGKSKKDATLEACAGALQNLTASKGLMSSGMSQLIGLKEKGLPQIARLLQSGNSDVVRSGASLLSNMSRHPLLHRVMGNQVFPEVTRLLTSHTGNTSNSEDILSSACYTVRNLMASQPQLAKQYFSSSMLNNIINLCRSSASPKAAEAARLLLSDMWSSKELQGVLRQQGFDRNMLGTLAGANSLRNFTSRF
Assay: co-IP; independent co-IP of PKP1 and TRIM21 in SK-MES-1 cell line, immunoblot; which protein was precipitated is not told

Chains of the proteins cited; added tags and fusions are not shown.
UniProt P19474: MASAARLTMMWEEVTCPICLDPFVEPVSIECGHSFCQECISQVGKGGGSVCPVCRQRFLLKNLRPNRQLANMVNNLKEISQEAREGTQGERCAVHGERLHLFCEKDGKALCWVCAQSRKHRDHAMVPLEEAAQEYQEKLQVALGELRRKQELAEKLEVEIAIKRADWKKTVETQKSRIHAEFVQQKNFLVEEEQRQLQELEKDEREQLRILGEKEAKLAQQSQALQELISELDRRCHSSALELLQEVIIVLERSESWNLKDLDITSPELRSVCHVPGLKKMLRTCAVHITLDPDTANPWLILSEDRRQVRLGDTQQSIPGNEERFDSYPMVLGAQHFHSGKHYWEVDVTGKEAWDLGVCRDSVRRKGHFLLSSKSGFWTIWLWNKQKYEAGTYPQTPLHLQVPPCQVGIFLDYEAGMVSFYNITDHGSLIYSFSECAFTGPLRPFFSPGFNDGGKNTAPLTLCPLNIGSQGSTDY

- binding: binds
Substance: TRIM21 (from UniProt P19474 1-475)

Source: article PMC12403285
